Experimental data from PubChem BioAssay AID1347426 (Functional Genomics Laboratory (NCATS/FGL), 2020).
Out of some 31,000 sequences screened, about 1,400 (4.5%) were called active.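 Rule for the calls: active = median seed-adjusted z-score above 1 or below -1; inactive = the rest.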 Some of the results follow.

experiment: Novel Modifiers of Survival Motor Neuron (SMN) Protein: Gene Identification via Genome-wide siRNA Screen; conditions: HEK293T SMN2-luciferase reporter, siRNA knockdown, 72 h; actives lie on both sides;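 note: luminescence tracks full-length SMN protein made from the SMN2 reporter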
Outline: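 HEK293T cells stably carrying an SMN2 promoter/splicing cassette–luciferase reporter were reverse-transfected with 1 pmol siRNA per well (druggable-genome library, 3 siRNAs per gene) and grown 72 h at 37 °C. Luminescence, normalized to negative-control siRNA and log10-transformed, was scored as MAD.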

Sequence	median seed-adjusted z-score
GCAAGUUCCAGGGCUACUATT against MGAT1	inactive: 0.138
GGCCCUUGUCUCUAAGGAUTT against SLC22A17	inactive: -0.149
ACAUCAUCACGUCGCAGAATT against CLDN3	inactive: -0.0833
GGAGGUGACCUUCCAGGAATT against RAB17	inactive: 0.473
GGCUAGUAGCUGAACUUCATT against DIMT1L	inactive: 0.0156
GCAAGUGGAGAACACUUUATT against NKX2-2	inactive: -0.0805
CACCUGAAUCUAUACGCUUTT against DGKK	inactive: 0
GCUCCACUCCGAACAAUCATT against EPO	inactive: 0.148
CCAACAAACAGUACGGGUATT against AVPR1A	inactive: 0
GCAGAUUACUGGUGACUAUTT against AMPD1	inactive: 0.378
CAGUCUACAGCUUCAACAATT against ZNF207	active: -3.1
GAUCAGGCCUUAUUCGACATT against ZNF345	inactive: -0.275
GCCUGACCCGUGAGACAAATT against THY1	active: -1.1
GGAGGUGUAUUUCCGGUUUTT against APOBEC3D	inactive: -0.0215
GGAGUGUGAUCGACCCUCATT against KRTAP5-5	active: -1.07
GGAAGAAACCAUUACAAUATT against SNAPC3	active: -1.72
GGAUUAUCACCUGAACUAUTT against FMR1	inactive: 0.504
GAACCAACCUGUCAAGUGATT against SELL	inactive: 0.554
GACUGAUUGCUGAUAGAAATT against DOCK1	inactive: -0.235
GCAAUCUGCGUAGCAAAUATT against ANGEL2	inactive: -0.59
GGCUGUAAGUGGUCUCCGUTT against TYROBP	inactive: 0.249
CCUCCUCAGUCAUAGAGCATT against NR2F2	inactive: 0.129
GGAUUAGUCCAAAGAGUGATT against FZD6	inactive: 0.312
GGAGAGGUAGAGAUCCGAATT against LTK	inactive: -0.0881
CCUGAAUCGGAUUAAAGAATT against LCN9	inactive: -0.897
GGCUGGGACUCGAAAGAAATT against APOB48R	inactive: 0.386
CGUGGUCACAAUUCUGCUATT against GPRC5D	inactive: -0.038

Some of the entries above, set out differently:

| Sequence | median seed-adjusted z-score |
| --- | --- |
| GGAGAGGUAGAGAUCCGAATT against LTK | inactive: -0.0881 |
| CCUGAAUCGGAUUAAAGAATT against LCN9 | inactive: -0.897 |
| GGCUGGGACUCGAAAGAAATT against APOB48R | inactive: 0.386 |

Further records follow.

Sequence	median seed-adjusted z-score
GCAUCGUUGAGACUUCGGATT against ARL6IP5	inactive: -0.202
GGUUGAAGAUGGUACUCCUTT against ADAMTS20	active: 1.44
GAUGGAUCUUUACAGUUGATT against METTL4	inactive: 0.244
CCAUGAAAGAACUUUCAAATT against AICDA	inactive: 0.289
CUGUCAAUAUGAUCUCUUATT against AADAC	inactive: 0.0318
GCAAAGUCGUAUGCGAUGATT against PABPC5	inactive: -0.428
GAAUCUCGUUGGUCCUGUUTT against GLMN	inactive: 0
AGACCUUCAUCAAAAACAUTT against MYC	inactive: -0.543
CAACGAAAAUCUAAAUGCATT against HMMR	inactive: 0.389
CCAGUGAGGUUACCACUUATT against ZCCHC13	inactive: -0.297
AGACCUAGCUUUAGCACAATT against ZFAND2B	inactive: 0
CGCUUUAACUGGAAGCUCUTT against ABCB8	inactive: -0.558
CGCAGCUGCUUUCCUAAAATT against BAHD1	inactive: 0.376
GUUUCUUGGUAUACCGUAATT against BRPF1	inactive: 0
GGACUCUAUUGAUAGGGAATT against PLA2G7	inactive: 0.292
UCCUCGAGCAGUUCCGUAATT against TUBG2	inactive: 0
GAACCACACGCAGAUCAGATT against GAL3ST2	inactive: 0
GAAGCUGGACAGCUGUAAATT against PLA2G1B	inactive: -0.411
CAAAUGUCAUGCAGACUUUTT against BHMT2	inactive: -0.0704
GCCCAUUGCUGCAAAUGCATT against VSX2	inactive: -0.333
GGAAGAAAAUAGUGCUGCATT against BARX1	active: 1.63
GGUAGACCUUUAUUGGGUATT against LMO2	inactive: 0
GCCUAGAUGAGCGAAUUUATT against LSM3	active: -1.36
UCUACAAGCUGGACCCUGATT against MYO1G	inactive: -0.907
GCUCCGAAGUGUUUACAAUTT against DQX1	inactive: -0.297
AGAUCCUUCCUACCCUCAATT against GPX3	inactive: 0.193
CGUGAAGCACGUGUACAGATT against KCTD2	inactive: 0.133
